Assay results as given in PMC2568865.
These are yes or no findings as the source states them, for the method shown. Some binding calls cover weakened binding; strength is not graded here. Sequences can lack the tags named with a protein.

Molecular target: T1, GST-tagged PP5 (human) (UniProt P53041)
T1 sequence: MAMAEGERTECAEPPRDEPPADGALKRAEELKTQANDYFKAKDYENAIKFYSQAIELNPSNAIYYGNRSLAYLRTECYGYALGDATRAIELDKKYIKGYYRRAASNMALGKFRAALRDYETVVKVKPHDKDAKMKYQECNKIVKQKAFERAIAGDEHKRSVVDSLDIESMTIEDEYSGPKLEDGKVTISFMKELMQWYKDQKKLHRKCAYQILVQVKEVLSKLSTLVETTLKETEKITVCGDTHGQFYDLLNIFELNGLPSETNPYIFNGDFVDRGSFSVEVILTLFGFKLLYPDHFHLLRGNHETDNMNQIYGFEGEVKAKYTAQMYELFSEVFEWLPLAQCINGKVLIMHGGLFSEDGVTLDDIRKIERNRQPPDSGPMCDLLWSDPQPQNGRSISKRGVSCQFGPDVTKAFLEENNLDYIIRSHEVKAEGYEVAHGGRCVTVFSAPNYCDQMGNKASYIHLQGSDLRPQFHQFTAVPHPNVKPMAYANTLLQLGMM
Assay: pull-down; GST-PP5 on glutathione Sepharose with Cdc37 or CK2-phosphorylated Cdc37, without Hsp90α; 4°C, 2 hr; 50 mM HEPES pH 7.5, 150 mM NaCl, 0.1% NP40, BSA; both purified

B1: pSer13-Cdc37 (E. coli-expressed Cdc37 phosphorylated in vitro with CK2) (protein, UniProt Q16543 1-378)
chain: MVDYSVWDHIEVSDDEDETHPNIDTASLFRWRHQARVERMEQFQKEKEELDRGCRECKRKVAECQRKLKELEVAEGGKAELERLQAEAQQLRKEERSWEQKLEEMRKKEKSMPWNVDTLSKDGFSKSMVNTKPEKTEEDSEEVREQKHKTFVEKYEKQIKHFGMLRRWDDSQKYLSDNVHLVCEETANYLVIWCIDLEVEEKCALMEQVAHQTIVMQFILELAKSLKVDPRACFRQFFTKIKTADRQYMEGFNDELEAFKERVRGRAKLRIEKAMKEYEEEERKKRLGPGGLDPVEVYESLPEELQKCFDVKDVQMLQDAISKMDPTDAKYHMQRCIDSGLWVPNSKASEAKEGEEAGPGDPLLEAVPKTGDEKDVSV
modifications: phosphoserine at 13
binding: binds weakly
